# In all, about 400,000 compounds went through this assay and about 13,000 (3.2%) were called active. The inconclusive results got no clear call from the source; some entries with a clear call stand among them for comparison. Calls come from the whole dose curve; as a rule, active = well fitted cell-killing curve with a large enough effect; inconclusive = small, poorly fitted or top-dose-only effect, or effect the other way; inactive = flat fitted curve, though single readings scatter. Potencies beside an inconclusive call are fits to weak or partial responses and may not hold up.
# Assay: qHTS assay for MDR1-selective chemotherapeutics: Primary screen using the drug-selected MDR subline cells KB-V1; note: nearly all actives have a fitted effect of over 60% in size
# Details: KB-V1 MDR cells viability, CellTiter-Glo, 72 h; activity change, negative = cytotoxicity: at 46.1 µM (top of the series)
# Method in brief: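 Cells of the MDR subline KB-V1 are plated, dosed with compound at multiple concentrations, and incubated 72 h at 37 degrees C; CellTiter-Glo is then added and luminescence read after 10 min.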
# % is set by controls: 0 for no effect and ±100 for the full control effect; potency is the fitted concentration of half-maximal effect.
SMILES,Potency,"activity change, negative = cytotoxicity"
O=C(Nc1cccc2ccccc12)/C(=C/c1ccc([N+](=O)[O-])cc1)NC(=O)c1ccccc1,active: 4.61 µM,
O=S(=O)(Nc1ccc(N2CCOCC2)cc1)c1ccc2ccccc2c1,inactive,
CNC(=O)C(=O)Nc1nc(C23CC4CC(CC(C4)C2)C3)cs1,inactive,
CC(C)CCn1nnc2sc(-c3ccccc3)cc2c1=O,inactive,
COC(=O)c1ccc(COc2ccccc2/C=C(\C#N)C(=O)NC(C)C)cc1,"inconclusive: 0.651 µM [cytotoxic, full curve]",
COc1ccc(NC(=O)Cn2c(=O)n(CC3CCCO3)c(=O)c3cc(OC)c(OC)cc32)cc1OC (configuration not stated),"inconclusive: 0.731 µM [rising, full curve, poor fit]",
Cc1cc(C)n(/N=C/c2cc(Cl)cc(Cl)c2O)c(=O)c1,"inconclusive: 29.1 µM [rising, single point]",
CN(C)c1nc(Cl)nc(N(C#N)CCOc2ccccc2)n1,inactive,
CCOc1ccc(CCNC(=O)CN2C(=O)COc3ccc(S(=O)(=O)N4CCCCCC4)cc32)cc1,active: 9.2 µM,
COc1ccc(S(=O)(=O)N(NC2=NS(=O)(=O)c3ccccc32)C(=O)C(C)C)cc1,"inconclusive: 32.6 µM [rising, single point]",
COC(=O)c1c(-c2ccc(Br)cc2)csc1NC(=O)Cc1ccc(OC)c(OC)c1,active: 7.31 µM,
O=C(NCc1ccccc1)C(Cc1ccccc1)NS(=O)(=O)c1cccc2nsnc12 (configuration not stated),"inconclusive: 14.6 µM [cytotoxic, partial curve]",
CC1=NN(c2ccccc2)C(=O)C1(C)C,"inconclusive: 29.1 µM [rising, single point]",
O=C(NCc1cccnc1)c1ccc(COc2ccccc2Br)o1,"inconclusive: 20.6 µM [cytotoxic, single point]",
CC1CCC(=O)N(CCC#N)CC1 (configuration not stated),"inconclusive: 18.4 µM [rising, single point]",
CCN(c1nc(N)c(C(=O)N=C(N)N)nc1Cl)C(C)C,inactive,
CCOC(=O)[C@]12CCCC=C1N(CCC1=CCCCC1)C(=O)[C@H](CC(=O)N1CCCC1)C2,"inconclusive: 4.61 µM [cytotoxic, partial curve]",
O=C(CSc1nnc(-c2ccncc2)n1Cc1ccco1)OC1CCCCC1,"inconclusive: 14.6 µM [cytotoxic, partial curve, poor fit]",
Cc1ccc(C(=O)Nc2cccc(Oc3ccccc3)c2)o1,"inconclusive: 20.6 µM [cytotoxic, single point]",
COc1ccc(NC(=O)C[C@H]2C(=O)N(Cc3ccccc3)C[C@@H]2C)cc1,inactive,
O=C(Cc1cccs1)Nc1ccccc1-c1nc2ccccc2[nH]1,"inconclusive: 29.1 µM [cytotoxic, single point]",
FC(F)(F)c1ccc2c(c1)[nH]c(=S)n2C1CC1,"inconclusive: 20.6 µM [cytotoxic, single point]",
COc1ccc(CNC(=O)CN(C(=O)CCC(=O)Nc2ccccn2)c2cccc(C)c2)cc1,inactive,
COc1ccc(CCCc2nc3ccccc3[nH]2)cc1,inactive,

SMILES,Potency,"activity change, negative = cytotoxicity"
CCCn1c(SCC(=O)NC(=O)NC(C)(C)C)n[nH]c1=O,inactive,
Cc1cc(C(=O)Nc2nc(-c3ccccn3)cs2)ccc1[N+](=O)[O-],"inconclusive: 8.2 µM [cytotoxic, partial curve]",
CCCN(CCC)C(=O)c1ccc2c(c1)N(Cc1ccccc1)C(=O)CS2=O (configuration not stated),"inconclusive: 25.9 µM [cytotoxic, single point]",
CCCCn1c(NC(=O)c2ccco2)c(S(=O)(=O)c2ccc(C)cc2)c2nc3ccccc3nc21,"inconclusive: 13 µM [cytotoxic, partial curve]",
COC(=O)CCCC[C@@H]1O[C@H](CCc2ccccc2)Cc2[nH][nH]c(=O)c21,inactive,
CC(C)CCNC(=O)c1ccc2c(c1)N(Cc1ccccc1F)C(=O)c1ccccc1S2(=O)=O,inactive,
O=c1/c(=C\c2cccnc2)sc2nc3ccccc3n12,inactive,
COc1ccc(CCNC(=O)CSCc2ccc(C)cc2)cc1OC,active: 20.6 µM,
Fc1ccccc1COc1ccc2ccccc2c1CNc1nn[nH]n1,inactive,
COc1ccc(CCNC(=O)c2cc(-c3ccccc3OC)on2)cc1OC,"inconclusive: 20.6 µM [cytotoxic, partial curve, poor fit]",
COc1ccc(-n2c(=S)[nH]c3cc(C(=O)NCc4cccnc4)ccc3c2=O)c(OC)c1,inactive,
O=c1c2ccccc2nc(-c2ccccc2)n1Cc1ccco1,active: 11.6 µM,
Cc1ccc(NS(=O)(=O)c2cccs2)nc1,"inconclusive: 20.6 µM [rising, single point]",
CC1=C(C(=O)N(C(C)C)C(C)C)CC(CC(=O)NCc2cccs2)C(=O)N1Cc1ccc(F)cc1 (configuration not stated),inactive,
CCc1ccc(OCC(=O)NCCc2ccc3c(c2)OCCO3)cc1,"inconclusive: 29.1 µM [rising, single point]",
CC(C)NC(=O)c1cc2c(=O)n3ccccc3nc2s1,inactive,
C/C(=N\NC(=O)C1CC1)c1ccc(OC(F)F)cc1OC(F)F,"inconclusive: 20.6 µM [cytotoxic, single point]",
O=C(NCCOCCNC(=O)OCc1ccccc1)OCc1ccccc1,"inconclusive: 20.6 µM [cytotoxic, partial curve, poor fit]",
CCn1c(C)nnc1SCC(=O)NC1CCCC1,,inconclusive: -2.83%
O=C(OCC(=O)N1CCCCC1)c1cc(NS(=O)(=O)c2ccc(Cl)c([N+](=O)[O-])c2)ccc1O,inactive,
OCCN(Cc1ccccc1)CC(O)COc1ccc(-c2ccccc2)cc1 (configuration not stated),"inconclusive: 29.1 µM [cytotoxic, single point]",
COc1ccc2oc3cc(C)[n+]([O-])c(-c4ccc(Cl)cc4)c3c2c1,"inconclusive: 18.4 µM [cytotoxic, partial curve, poor fit]",
CCCn1c(=O)c(C(=O)N/N=C/c2ccc(F)cc2)c(O)c2ccccc21,"inconclusive: 18.4 µM [cytotoxic, partial curve, poor fit]",

# 12 structures from above, sorted by formula weight, descending.
SMILES,Potency,"activity change, negative = cytotoxicity"
CC1=C(C(=O)N(C(C)C)C(C)C)CC(CC(=O)NCc2cccs2)C(=O)N1Cc1ccc(F)cc1 (configuration not stated),inactive,
CC(C)CCNC(=O)c1ccc2c(c1)N(Cc1ccccc1F)C(=O)c1ccccc1S2(=O)=O,inactive,
COc1ccc(-n2c(=S)[nH]c3cc(C(=O)NCc4cccnc4)ccc3c2=O)c(OC)c1,inactive,
COc1ccc(CCNC(=O)c2cc(-c3ccccc3OC)on2)cc1OC,"inconclusive: 20.6 µM [cytotoxic, partial curve, poor fit]",
OCCN(Cc1ccccc1)CC(O)COc1ccc(-c2ccccc2)cc1 (configuration not stated),"inconclusive: 29.1 µM [cytotoxic, single point]",
O=C(NCCOCCNC(=O)OCc1ccccc1)OCc1ccccc1,"inconclusive: 20.6 µM [cytotoxic, partial curve, poor fit]",
CCCn1c(=O)c(C(=O)N/N=C/c2ccc(F)cc2)c(O)c2ccccc21,"inconclusive: 18.4 µM [cytotoxic, partial curve, poor fit]",
COc1ccc(CCNC(=O)CSCc2ccc(C)cc2)cc1OC,active: 20.6 µM,
Cc1cc(C(=O)Nc2nc(-c3ccccn3)cs2)ccc1[N+](=O)[O-],"inconclusive: 8.2 µM [cytotoxic, partial curve]",
C/C(=N\NC(=O)C1CC1)c1ccc(OC(F)F)cc1OC(F)F,"inconclusive: 20.6 µM [cytotoxic, single point]",
CC(C)NC(=O)c1cc2c(=O)n3ccccc3nc2s1,inactive,
CCn1c(C)nnc1SCC(=O)NC1CCCC1,,inconclusive: -2.83%
